# Source: the supplement of paper PMC8728848
# Some of the results follow.
# B1: SP15308C-bot-338-23-338 (Bacteroides ovatus) (protein)
# chain: DEWTDEQFKQLISFKTQPGGWGVTDVHVRYANSAKYTYNLPVLVSGSTDNTDDRLVSFSLRDDTLDILNFEKFGNRPELYFRELPQKYYSFPKELTIPAGQSHALLPIEFSLDGLDDSQKWALPLKVCEDANGTYAVNPRKYYRTAVLRPILFNEFSGRFSGSSLLGTMAGESDIKFSSTEIKLNVVTDSIVFFYAGQRTEDYEDRINYKVFLQFTGDKVDSKKDLYKMKIWAENEKLKFNSYSTPTYKVSSEMDATKTYLKHTYIVISDIDFDFVDYTSVPNYEIEYNMKGGLSVSRDLDTRKPDEDQGSDSKWW
# Key:
# Test in all cases: glycan array binding signal (z-score within array); higher = stronger binding
# Conditions in all cases: glycan notation: IUPAC condensed, linker removed
# [1] = target: Gal(b1-4)GalNAc(b1-3)[Fuc(a1-2)]Gal(b1-4)GlcNAc
# How it was run: (§1)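 Arrays were curated from the Consortium for Functional Glycomics database, 3228 in total, and kept only where the protein sequence was available. Binding is expressed as a within-array Z-score. This score was averaged across arrays of the same protein sequence at different concentrations or buffers and across linkers, and negative values can be read as non-binding.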
# Gal(b1-4)Glc = target: Gal(b1-4)Glc
# How it was run: as §1
# Gal(b1-4)Glc6S = target: Gal(b1-4)Glc6S
# How it was run: as §1
# Gal(b1-4)GlcNAc = target: Gal(b1-4)GlcNAc
# How it was run: as §1
# [2] = target: Gal(b1-4)GlcNAc(a1-6)Gal(b1-4)GlcNAc
# How it was run: as §1
# Gal(b1-4)GlcNAc(b1-2)Man = target: Gal(b1-4)GlcNAc(b1-2)Man
# How it was run: as §1
# [3] = target: Gal(b1-4)GlcNAc(b1-2)Man(a1-3)Man(b1-4)GlcNAc(b1-4)GlcNAc
# How it was run: as §1
# [4] = target: Gal(b1-4)GlcNAc(b1-2)Man(a1-3)[Gal(b1-4)GlcNAc(b1-2)Man(a1-6)]Man(b1-4)GlcNAc(b1-4)GlcNAc
# How it was run: as §1
# [5] = target: Gal(b1-4)GlcNAc(b1-2)Man(a1-3)[Gal(b1-4)GlcNAc(b1-2)Man(a1-6)]Man(b1-4)GlcNAc(b1-4)[Fuc(a1-6)]GlcNAc
# How it was run: as §1
# [6] = target: Gal(b1-4)GlcNAc(b1-2)Man(a1-3)[Gal(b1-4)GlcNAc(b1-2)Man(a1-6)][Gal(b1-4)GlcNAc(b1-4)]Man(b1-4)GlcNAc(b1-4)[Fuc(a1-6)]GlcNAc
# How it was run: as §1
# [7] = target: Gal(b1-4)GlcNAc(b1-2)Man(a1-3)[Gal(b1-4)GlcNAc(b1-2)Man(a1-6)][GlcNAc(b1-4)]Man(b1-4)GlcNAc(b1-4)[Fuc(a1-6)]GlcNAc
# How it was run: as §1
# [8] = target: Gal(b1-4)GlcNAc(b1-2)Man(a1-3)[GlcNAc(b1-2)Man(a1-6)]Man(b1-4)GlcNAc(b1-4)GlcNAc
# How it was run: as §1
# [9] = target: Gal(b1-4)GlcNAc(b1-2)Man(a1-3)[GlcNAc(b1-4)][Gal(b1-4)GlcNAc(b1-2)Man(a1-6)]Man(b1-4)GlcNAc(b1-4)GlcNAc
# How it was run: as §1
# [10] = target: Gal(b1-4)GlcNAc(b1-2)Man(a1-3)[Man(a1-6)]Man(b1-4)GlcNAc(b1-4)GlcNAc
# How it was run: as §1
# [11] = target: Gal(b1-4)GlcNAc(b1-2)Man(a1-6)Man(b1-4)GlcNAc(b1-4)GlcNAc
# How it was run: as §1
# [12] = target: Gal(b1-4)GlcNAc(b1-2)Man(a1-6)[GlcNAc(b1-2)Man(a1-3)]Man(b1-4)GlcNAc(b1-4)GlcNAc
# How it was run: as §1
# [13] = target: Gal(b1-4)GlcNAc(b1-2)Man(a1-6)[Man(a1-3)]Man(b1-4)GlcNAc(b1-4)GlcNAc
# How it was run: as §1
# [14] = target: Gal(b1-4)GlcNAc(b1-2)[Gal(b1-4)GlcNAc(b1-4)]Man(a1-3)[Gal(b1-4)GlcNAc(b1-2)Man(a1-6)]Man(b1-4)GlcNAc(b1-4)GlcNAc
# How it was run: as §1
# [15] = target: Gal(b1-4)GlcNAc(b1-2)[Gal(b1-4)GlcNAc(b1-4)]Man(a1-3)[Gal(b1-4)GlcNAc(b1-2)[Gal(b1-4)GlcNAc(b1-6)]Man(a1-6)]Man(b1-4)GlcNAc(b1-4)GlcNAc
# How it was run: as §1
# [16] = target: Gal(b1-4)GlcNAc(b1-2)[Gal(b1-4)GlcNAc(b1-4)]Man(a1-3)[GlcNAc(b1-4)][Gal(b1-4)GlcNAc(b1-2)Man(a1-6)]Man(b1-4)GlcNAc(b1-4)GlcNAc
# How it was run: as §1
# [17] = target: Gal(b1-4)GlcNAc(b1-2)[Gal(b1-4)GlcNAc(b1-4)]Man(a1-3)[GlcNAc(b1-4)][Gal(b1-4)GlcNAc(b1-2)[Gal(b1-4)GlcNAc(b1-6)]Man(a1-6)]Man(b1-4)GlcNAc(b1-4)GlcNAc
# How it was run: as §1
# [18] = target: Gal(b1-4)GlcNAc(b1-2)[Gal(b1-4)GlcNAc(b1-6)]Man(a1-6)[Gal(b1-4)GlcNAc(b1-2)Man(a1-3)]Man(b1-4)GlcNAc(b1-4)GlcNAc
# How it was run: as §1
# [19] = target: Gal(b1-4)GlcNAc(b1-2)[Gal(b1-4)GlcNAc(b1-6)]Man(a1-6)[Gal(b1-4)GlcNAc(b1-2)Man(a1-3)]Man(b1-4)GlcNAc(b1-4)[Fuc(a1-6)]GlcNAc
# How it was run: as §1
# [20] = target: Gal(b1-4)GlcNAc(b1-2)[Gal(b1-4)GlcNAc(b1-6)]Man(a1-6)[GlcNAc(b1-4)][Gal(b1-4)GlcNAc(b1-2)Man(a1-3)]Man(b1-4)GlcNAc(b1-4)GlcNAc
# How it was run: as §1
# [21] = target: Gal(b1-4)GlcNAc(b1-2)[Gal(b1-4)GlcNAc(b1-6)]Man(a1-6)[GlcNAc(b1-4)][Gal(b1-4)GlcNAc(b1-2)[Gal(b1-4)GlcNAc(b1-4)]Man(a1-3)]Man(b1-4)GlcNAc(b1-4)[Fuc(a1-6)]GlcNAc
# How it was run: as §1
# [22] = target: Gal(b1-4)GlcNAc(b1-3)Gal(b1-3)GalNAc
# How it was run: as §1
# [23] = target: Gal(b1-4)GlcNAc(b1-3)Gal(b1-3)GlcNAc
# How it was run: as §1
# [24] = target: Gal(b1-4)GlcNAc(b1-3)Gal(b1-4)Glc
# How it was run: as §1
# [25] = target: Gal(b1-4)GlcNAc(b1-3)Gal(b1-4)GlcNAc
# How it was run: as §1
# [26] = target: Gal(b1-4)GlcNAc(b1-3)Gal(b1-4)GlcNAc(b1-2)Man(a1-3)[Gal(b1-4)GlcNAc(b1-3)Gal(b1-4)GlcNAc(b1-2)Man(a1-6)]Man(b1-4)GlcNAc(b1-4)GlcNAc
# How it was run: as §1
# [27] = target: Gal(b1-4)GlcNAc(b1-3)Gal(b1-4)GlcNAc(b1-2)Man(a1-3)[Gal(b1-4)GlcNAc(b1-3)Gal(b1-4)GlcNAc(b1-2)Man(a1-6)]Man(b1-4)GlcNAc(b1-4)[Fuc(a1-6)]GlcNAc
# How it was run: as §1
# [28] = target: Gal(b1-4)GlcNAc(b1-3)Gal(b1-4)GlcNAc(b1-2)[Gal(b1-4)GlcNAc(b1-3)Gal(b1-4)GlcNAc(b1-6)]Man(a1-6)[Gal(b1-4)GlcNAc(b1-3)Gal(b1-4)GlcNAc(b1-2)Man(a1-3)]Man(b1-4)GlcNAc(b1-4)GlcNAc
# How it was run: as §1
# [29] = target: Gal(b1-4)GlcNAc(b1-3)Gal(b1-4)GlcNAc(b1-2)[Gal(b1-4)GlcNAc(b1-3)Gal(b1-4)GlcNAc(b1-6)]Man(a1-6)[Gal(b1-4)GlcNAc(b1-3)Gal(b1-4)GlcNAc(b1-2)Man(a1-3)]Man(b1-4)GlcNAc(b1-4)[Fuc(a1-6)]GlcNAc
# How it was run: as §1
# [30] = target: Gal(b1-4)GlcNAc(b1-3)Gal(b1-4)GlcNAc(b1-3)Gal(b1-4)GlcNAc
# How it was run: as §1
# [31] = target: Gal(b1-4)GlcNAc(b1-3)Gal(b1-4)GlcNAc(b1-3)Gal(b1-4)GlcNAc(b1-2)Man(a1-3)[Gal(b1-4)GlcNAc(b1-3)Gal(b1-4)GlcNAc(b1-3)Gal(b1-4)GlcNAc(b1-2)Man(a1-6)]Man(b1-4)GlcNAc(b1-4)GlcNAc
# How it was run: as §1
# [32] = target: Gal(b1-4)GlcNAc(b1-3)Gal(b1-4)GlcNAc(b1-3)Gal(b1-4)GlcNAc(b1-2)Man(a1-3)[Gal(b1-4)GlcNAc(b1-3)Gal(b1-4)GlcNAc(b1-3)Gal(b1-4)GlcNAc(b1-2)Man(a1-6)]Man(b1-4)GlcNAc(b1-4)[Fuc(a1-6)]GlcNAc
# How it was run: as §1
# [33] = target: Gal(b1-4)GlcNAc(b1-3)Gal(b1-4)GlcNAc(b1-3)Gal(b1-4)GlcNAc(b1-2)[Gal(b1-4)GlcNAc(b1-3)Gal(b1-4)GlcNAc(b1-3)Gal(b1-4)GlcNAc(b1-6)]Man(a1-6)[Gal(b1-4)GlcNAc(b1-3)Gal(b1-4)GlcNAc(b1-3)Gal(b1-4)GlcNAc(b1-2)Man(a1-3)]Man(b1-4)GlcNAc(b1-4)[Fuc(a1-6)]GlcNAc
# How it was run: as §1
binder,measurement,setting,value
B1,glycan array binding signal (z-score),[1],-0.414
same,glycan array binding signal (z-score),Gal(b1-4)Glc,-0.335
same,glycan array binding signal (z-score),Gal(b1-4)Glc6S,0.333
same,glycan array binding signal (z-score),Gal(b1-4)GlcNAc,-0.508
same,glycan array binding signal (z-score),[2],-0.143
same,glycan array binding signal (z-score),Gal(b1-4)GlcNAc(b1-2)Man,0.773
same,glycan array binding signal (z-score),[3],-0.354
same,glycan array binding signal (z-score),[4],-0.685
same,glycan array binding signal (z-score),[5],0.645
same,glycan array binding signal (z-score),[6],0.108
same,glycan array binding signal (z-score),[7],-0.388
same,glycan array binding signal (z-score),[8],-0.905
same,glycan array binding signal (z-score),[9],-0.483
same,glycan array binding signal (z-score),[10],-0.22
same,glycan array binding signal (z-score),[11],0.05
same,glycan array binding signal (z-score),[12],-0.346
same,glycan array binding signal (z-score),[13],-0.112
same,glycan array binding signal (z-score),[14],0.311
same,glycan array binding signal (z-score),[15],0.267
same,glycan array binding signal (z-score),[16],-0.338
same,glycan array binding signal (z-score),[17],0.342
same,glycan array binding signal (z-score),[18],-0.059
same,glycan array binding signal (z-score),[19],-0.048
same,glycan array binding signal (z-score),[20],-0.299
same,glycan array binding signal (z-score),[21],0.457
same,glycan array binding signal (z-score),[22],-0.244
same,glycan array binding signal (z-score),[23],-0.598
same,glycan array binding signal (z-score),[24],-0.369
same,glycan array binding signal (z-score),[25],-0.716
same,glycan array binding signal (z-score),[26],1.12
same,glycan array binding signal (z-score),[27],0.198
same,glycan array binding signal (z-score),[28],1.57
same,glycan array binding signal (z-score),[29],1.76
same,glycan array binding signal (z-score),[30],-0.191
same,glycan array binding signal (z-score),[31],4.37
same,glycan array binding signal (z-score),[32],0.715
same,glycan array binding signal (z-score),[33],0.777

# In another format: results already given
binder	measurement	setting	value
B1	glycan array binding signal (z-score)	Gal(b1-4)Glc	-0.335
same	glycan array binding signal (z-score)	Gal(b1-4)Glc6S	0.333
same	glycan array binding signal (z-score)	Gal(b1-4)GlcNAc	-0.508
